Source: US9737587B2 (The Research Foundation for Mental Hygiene, Inc., priority 2014, dated 2017)
No end group written: not given here.

Assay: peptide synthesis
Conditions: whole synthesis

VGDGGLFEKKL
final HPLC purity: >96%
